# Reference: US12491217B2, “Compositions and methods for promoting healthy neural development in an unborn baby” (The Regents of the University of California, priority 2019, dated 2025)
# Assay: Metabolomics of fetal brain at E14.5
# Format: in vivo, C57Bl/6J mice
# [1] = metabolite level in E14.5 fetal brain, ANOVA contrast ABX/SPF
# [2] = metabolite level in E14.5 fetal brain, ANOVA contrast GF/ABX
# [3] = metabolite level in E14.5 fetal brain, ANOVA contrast GF/SPF
# [4] = metabolite level in E14.5 fetal brain, ANOVA contrast GF/Sp
# [5] = metabolite level in E14.5 fetal brain, ANOVA contrast Sp/ABX
# [6] = metabolite level in E14.5 fetal brain, ANOVA contrast Sp/SPF
compound,measurement,setting,value
COC1OC(CO)C(O)C(O)C1O (mixture of isomers) [compound 4246],fold of change ABX/SPF,[1],0.62
same,fold of change GF/ABX,[2],1.57
same,fold of change GF/SPF,[3],0.98
same,fold of change GF/Sp,[4],0.68
same,fold of change Sp/ABX,[5],2.32
same,fold of change Sp/SPF,[6],1.45
"CC(O)CC(=O)OC(CC(=O)[O-])C[N+](C)(C)C (single isomer, unassigned) [compound 1482]",fold of change ABX/SPF,"E14.5 fetal brain metabolite level, ANOVA contrast ABX vs SPF",0.82
same,fold of change GF/ABX,"E14.5 fetal brain metabolite level, ANOVA contrast GF vs ABX",1.39
same,fold of change GF/SPF,"E14.5 fetal brain metabolite level, ANOVA contrast GF vs SPF",1.14
same,fold of change GF/Sp,"E14.5 fetal brain metabolite level, ANOVA contrast GF vs Sp",1.44
same,fold of change Sp/ABX,"E14.5 fetal brain metabolite level, ANOVA contrast Sp vs ABX",0.96
same,fold of change Sp/SPF,"E14.5 fetal brain metabolite level, ANOVA contrast Sp vs SPF",0.79
NCC(=O)O [compound 1],fold of change ABX/SPF,[1],0.82
same,fold of change GF/ABX,[2],1.15
same,fold of change GF/SPF,[3],0.94
same,fold of change GF/Sp,[4],1.14
same,fold of change Sp/ABX,[5],1.01
same,fold of change Sp/SPF,[6],0.83
CC(=O)NCC(=O)O [compound 2],fold of change ABX/SPF,[1],1.01
same,fold of change GF/ABX,[2],1.37
same,fold of change GF/SPF,[3],1.38
same,fold of change GF/Sp,[4],1.51
same,fold of change Sp/ABX,[5],0.91
same,fold of change Sp/SPF,[6],0.91
CN(C)CC(=O)O [compound 5],fold of change ABX/SPF,[1],0.69
same,fold of change GF/ABX,[2],1.20
same,fold of change GF/SPF,[3],0.83
same,fold of change GF/Sp,[4],1.09
same,fold of change Sp/ABX,[5],1.10
same,fold of change Sp/SPF,[6],0.76
C[N+](C)(C)CC(=O)[O-] [compound 6],fold of change ABX/SPF,[1],0.66
same,fold of change GF/ABX,[2],1.21
same,fold of change GF/SPF,[3],0.80
same,fold of change GF/Sp,[4],0.98
same,fold of change Sp/ABX,[5],1.23
same,fold of change Sp/SPF,[6],0.81
N[C@@H](CO)C(=O)O [compound 9],fold of change ABX/SPF,[1],1.07
same,fold of change GF/ABX,[2],0.97
same,fold of change GF/SPF,[3],1.04
same,fold of change GF/Sp,[4],1.23
same,fold of change Sp/ABX,[5],0.79
same,fold of change Sp/SPF,[6],0.85
CC(=O)N[C@@H](CO)C(=O)O [compound 10],fold of change ABX/SPF,[1],0.82
same,fold of change GF/ABX,[2],1.10
same,fold of change GF/SPF,[3],0.90
same,fold of change GF/Sp,[4],1.12
same,fold of change Sp/ABX,[5],0.98
same,fold of change Sp/SPF,[6],0.80
N[C@@H](COP(=O)(O)O)C(=O)O [compound 14],fold of change ABX/SPF,[1],1.01
same,fold of change GF/ABX,[2],1.51
same,fold of change GF/SPF,[3],1.53
same,fold of change GF/Sp,[4],1.91
same,fold of change Sp/ABX,[5],0.79
same,fold of change Sp/SPF,[6],0.80
C[C@@H](O)[C@H](N)C(=O)O [compound 16],fold of change ABX/SPF,[1],0.80
same,fold of change GF/ABX,[2],1.14
same,fold of change GF/SPF,[3],0.92
same,fold of change GF/Sp,[4],1.17
same,fold of change Sp/ABX,[5],0.98
same,fold of change Sp/SPF,[6],0.79
CC(=O)N[C@H](C(=O)O)[C@@H](C)O [compound 17],fold of change ABX/SPF,[1],0.84
same,fold of change GF/ABX,[2],1.19
same,fold of change GF/SPF,[3],1.01
same,fold of change GF/Sp,[4],1.12
same,fold of change Sp/ABX,[5],1.07
same,fold of change Sp/SPF,[6],0.90
CC(O)C(N)C(=O)O (stereo not drawn) [compound 18],fold of change ABX/SPF,[1],0.68
same,fold of change GF/ABX,[2],1.21
same,fold of change GF/SPF,[3],0.82
same,fold of change GF/Sp,[4],1.04
same,fold of change Sp/ABX,[5],1.16
same,fold of change Sp/SPF,[6],0.79
C[C@H](N)C(=O)O [compound 28],fold of change ABX/SPF,[1],0.83
same,fold of change GF/ABX,[2],1.04
same,fold of change GF/SPF,[3],0.86
same,fold of change GF/Sp,[4],1.05
same,fold of change Sp/ABX,[5],0.99
same,fold of change Sp/SPF,[6],0.82
CC(=O)N[C@@H](C)C(=O)O [compound 30],fold of change ABX/SPF,[1],0.72
same,fold of change GF/ABX,[2],1.16
same,fold of change GF/SPF,[3],0.83
same,fold of change GF/Sp,[4],1.01
same,fold of change Sp/ABX,[5],1.15
same,fold of change Sp/SPF,[6],0.82
N[C@@H](CC(=O)O)C(=O)O [compound 34],fold of change ABX/SPF,[1],0.81
same,fold of change GF/ABX,[2],1.03
same,fold of change GF/SPF,[3],0.83
same,fold of change GF/Sp,[4],1.01
same,fold of change Sp/ABX,[5],1.01
same,fold of change Sp/SPF,[6],0.82
CC(=O)N[C@@H](CC(=O)O)C(=O)O [compound 35],fold of change ABX/SPF,[1],0.69
same,fold of change GF/ABX,[2],1.06
same,fold of change GF/SPF,[3],0.73
same,fold of change GF/Sp,[4],0.92
same,fold of change Sp/ABX,[5],1.15
same,fold of change Sp/SPF,[6],0.79
NC(=O)C[C@H](N)C(=O)O [compound 38],fold of change ABX/SPF,[1],0.95
same,fold of change GF/ABX,[2],1.01
same,fold of change GF/SPF,[3],0.96
same,fold of change GF/Sp,[4],1.01
same,fold of change Sp/ABX,[5],1.00
same,fold of change Sp/SPF,[6],0.95
CC(=O)N[C@@H](CC(N)=O)C(=O)O [compound 39],fold of change ABX/SPF,[1],0.87
same,fold of change GF/ABX,[2],1.13
same,fold of change GF/SPF,[3],0.98
same,fold of change GF/Sp,[4],1.07
same,fold of change Sp/ABX,[5],1.06
same,fold of change Sp/SPF,[6],0.92
NC(=O)C(O)C(N)C(=O)O (stereo not drawn) [compound 40],fold of change ABX/SPF,[1],0.55
same,fold of change GF/ABX,[2],1.03
same,fold of change GF/SPF,[3],0.56
same,fold of change GF/Sp,[4],0.81
same,fold of change Sp/ABX,[5],1.27
same,fold of change Sp/SPF,[6],0.69
N[C@@H](CCC(=O)O)C(=O)O [compound 41],fold of change ABX/SPF,[1],0.84
same,fold of change GF/ABX,[2],1.03
same,fold of change GF/SPF,[3],0.86
same,fold of change GF/Sp,[4],0.99
same,fold of change Sp/ABX,[5],1.04
same,fold of change Sp/SPF,[6],0.87
NC(=O)CC[C@H](N)C(=O)O [compound 42],fold of change ABX/SPF,[1],0.70
same,fold of change GF/ABX,[2],0.96
same,fold of change GF/SPF,[3],0.67
same,fold of change GF/Sp,[4],0.78
same,fold of change Sp/ABX,[5],1.23
same,fold of change Sp/SPF,[6],0.86
NC(=O)CCC(=O)C(=O)O [compound 43],fold of change ABX/SPF,[1],0.77
same,fold of change GF/ABX,[2],0.81
same,fold of change GF/SPF,[3],0.63
same,fold of change GF/Sp,[4],0.34
same,fold of change Sp/ABX,[5],2.42
same,fold of change Sp/SPF,[6],1.87
CC(=O)N[C@@H](CCC(=O)O)C(=O)O [compound 44],fold of change ABX/SPF,[1],0.76
same,fold of change GF/ABX,[2],1.00
same,fold of change GF/SPF,[3],0.75
same,fold of change GF/Sp,[4],0.98
same,fold of change Sp/ABX,[5],1.02
same,fold of change Sp/SPF,[6],0.77
NC(CC(O)C(=O)O)C(=O)O (stereo not drawn) [compound 47],fold of change ABX/SPF,[1],1.04
same,fold of change GF/ABX,[2],1.01
same,fold of change GF/SPF,[3],1.05
same,fold of change GF/Sp,[4],1.65
same,fold of change Sp/ABX,[5],0.61
same,fold of change Sp/SPF,[6],0.64
COC(=O)CC[C@H](N)C(=O)O [compound 50],fold of change ABX/SPF,[1],0.71
same,fold of change GF/ABX,[2],1.19
same,fold of change GF/SPF,[3],0.84
same,fold of change GF/Sp,[4],1.02
same,fold of change Sp/ABX,[5],1.16
same,fold of change Sp/SPF,[6],0.82
CC(=O)N[C@@H](CC(=O)O)C(=O)N[C@@H](CCC(=O)O)C(=O)O [compound 52] (Ac-Asp-Glu-OH),fold of change ABX/SPF,[1],0.80
same,fold of change GF/ABX,[2],0.93
same,fold of change GF/SPF,[3],0.74
same,fold of change GF/Sp,[4],0.88
same,fold of change Sp/ABX,[5],1.05
same,fold of change Sp/SPF,[6],0.84
O=C(O)CCC(NC(=O)C(O)(CC(=O)O)CC(=O)O)C(=O)O (stereo not drawn) [compound 53],fold of change ABX/SPF,[1],0.85
same,fold of change GF/ABX,[2],0.95
same,fold of change GF/SPF,[3],0.81
same,fold of change GF/Sp,[4],0.92
same,fold of change Sp/ABX,[5],1.04
same,fold of change Sp/SPF,[6],0.88
NCCCC(=O)O [compound 54],fold of change ABX/SPF,[1],0.75
same,fold of change GF/ABX,[2],0.96
same,fold of change GF/SPF,[3],0.72
same,fold of change GF/Sp,[4],0.90
same,fold of change Sp/ABX,[5],1.06
same,fold of change Sp/SPF,[6],0.80
O=C(O)CCCNCCC(=O)O [compound 55],fold of change ABX/SPF,[1],0.88
same,fold of change GF/ABX,[2],0.68
same,fold of change GF/SPF,[3],0.60
same,fold of change GF/Sp,[4],0.72
same,fold of change Sp/ABX,[5],0.94
same,fold of change Sp/SPF,[6],0.83
CNCCCC(=O)O [compound 56],fold of change ABX/SPF,[1],1.22
same,fold of change GF/ABX,[2],0.59
same,fold of change GF/SPF,[3],0.72
same,fold of change GF/Sp,[4],0.95
same,fold of change Sp/ABX,[5],0.62
same,fold of change Sp/SPF,[6],0.76
O=C(O)[C@@H]1CCC=N1 [compound 59],fold of change ABX/SPF,[1],1.70
same,fold of change GF/ABX,[2],0.37
same,fold of change GF/SPF,[3],0.63
same,fold of change GF/Sp,[4],0.78
same,fold of change Sp/ABX,[5],0.47
same,fold of change Sp/SPF,[6],0.81
N[C@@H](Cc1c[nH]cn1)C(=O)O [compound 65],fold of change ABX/SPF,[1],1.14
same,fold of change GF/ABX,[2],0.85
same,fold of change GF/SPF,[3],0.96
same,fold of change GF/Sp,[4],1.00
same,fold of change Sp/ABX,[5],0.85
same,fold of change Sp/SPF,[6],0.96
Cn1cnc(C[C@H](N)C(=O)O)c1 [compound 66],fold of change ABX/SPF,[1],1.35
same,fold of change GF/ABX,[2],0.60
same,fold of change GF/SPF,[3],0.81
same,fold of change GF/Sp,[4],1.00
same,fold of change Sp/ABX,[5],0.60
same,fold of change Sp/SPF,[6],0.81
Cn1cncc1C[C@H](N)C(=O)O [compound 67],fold of change ABX/SPF,[1],1.01
same,fold of change GF/ABX,[2],0.70
same,fold of change GF/SPF,[3],0.70
same,fold of change GF/Sp,[4],0.96
same,fold of change Sp/ABX,[5],0.72
same,fold of change Sp/SPF,[6],0.73
CC(=O)N[C@@H](Cc1c[nH]cn1)C(=O)O [compound 68],fold of change ABX/SPF,[1],0.94
same,fold of change GF/ABX,[2],1.08
same,fold of change GF/SPF,[3],1.02
same,fold of change GF/Sp,[4],1.46
same,fold of change Sp/ABX,[5],0.74
same,fold of change Sp/SPF,[6],0.70
O=C(O)CCc1c[nH]cn1 [compound 74],fold of change ABX/SPF,[1],0.33
same,fold of change GF/ABX,[2],0.99
same,fold of change GF/SPF,[3],0.33
same,fold of change GF/Sp,[4],0.20
same,fold of change Sp/ABX,[5],4.81
same,fold of change Sp/SPF,[6],1.60

# Where a SMILES comes first, the peptide text is derived from it.
